Laboratory results from paper PMC4363469.
Results are given in words; binding and its absence hold for the method and conditions named. In cells and extracts the contact can be indirect. Some entries that bind do so weakly or less than the wild type.

By UniProt entry, the sequences of proteins in these tests, tags left out. Where a name states a change or a piece, a line headed by the entry shows the natural chain unless it says otherwise. Chains listed by the source or under a name are the forms on record and can include a tag or linker. Residues count along the entry.
UniProt P04608: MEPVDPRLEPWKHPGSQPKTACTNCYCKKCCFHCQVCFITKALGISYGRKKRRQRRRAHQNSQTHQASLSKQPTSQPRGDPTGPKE
FLAG-tagged CycT1 (1-278), wild type (O60563, residues 1-278): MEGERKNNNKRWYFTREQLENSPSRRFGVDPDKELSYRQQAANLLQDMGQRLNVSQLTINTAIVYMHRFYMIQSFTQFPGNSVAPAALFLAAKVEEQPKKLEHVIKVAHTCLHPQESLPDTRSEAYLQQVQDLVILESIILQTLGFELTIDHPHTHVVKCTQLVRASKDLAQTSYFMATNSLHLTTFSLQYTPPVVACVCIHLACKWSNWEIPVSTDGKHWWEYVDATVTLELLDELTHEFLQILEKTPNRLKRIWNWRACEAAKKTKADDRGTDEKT
FLAG-tagged CycT1 (1-278) H183A (O60563, form named): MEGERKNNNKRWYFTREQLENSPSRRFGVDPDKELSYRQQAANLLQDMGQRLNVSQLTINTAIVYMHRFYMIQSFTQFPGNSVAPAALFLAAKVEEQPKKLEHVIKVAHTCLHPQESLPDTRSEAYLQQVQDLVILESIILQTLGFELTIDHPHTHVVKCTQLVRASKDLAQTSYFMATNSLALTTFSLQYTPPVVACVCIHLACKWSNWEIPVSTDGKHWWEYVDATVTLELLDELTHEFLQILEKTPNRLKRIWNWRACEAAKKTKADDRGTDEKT

Columns and labels:
[1] = biological target: HA-tagged HIV-1 Tat (HIV-1) (UniProt P04608); experiment: co-IP; same lysates of HEK293 cells co-transfected with FLAG-CycT1 (WT or mutant), HA-Tat and Myc-CDK9; high salt lysis buffer (300mM NaCl); immunoprecipitated with anti-HA antibody 4hr, then protein G-agarose 2 hr at 4°C; blotted for FLAG-CycT1 and Myc-CDK9
[2] = biological target: FLAG-tagged CycT1 (1-278) H183A (human) (UniProt O60563); experiment: co-IP; HEK293 cells co-transfected with FLAG-CycT1 (WT or mutant), HA-Tat and Myc-CDK9; high salt lysis buffer (50mM Tris-HCl pH 8.0, 300mM NaCl, 1mM EDTA, 0.5% NP-40, 10% glycerol); immunoprecipitated with anti-M2 (FLAG) beads 4hr at 4°C; blotted with anti-HA and anti-Myc
[3] = biological target: FLAG-tagged CycT1 (1-278), wild type (human) (UniProt O60563); experiment: as above

“FLAG-tagged CycT1 (1-278), wild type (from UniProt O60563 1-278) (domain or fragment)” was tested, and the binding [1] was “binds”.

With “HA-tagged HIV-1 Tat (from UniProt P04608 1-86)” the binding [2] was “binds” and the binding [3] was “binds”.
